For one compound, Ki results are on record in publication PMC12531861, “Ciprofloxacin Inhibits Angiotensin I‑Converting Enzyme (ACE) Activity by Binding at the Exosite, Distal to the Catalytic Pocket” (ACS Bio & Med Chem Au, 2025).

The chains behind the UniProt entries cited, without tags or fusion partners. Residues count along the entry.
UniProt P12821, 642-1238 N695Q/N760Q/N942Q/N1191Q: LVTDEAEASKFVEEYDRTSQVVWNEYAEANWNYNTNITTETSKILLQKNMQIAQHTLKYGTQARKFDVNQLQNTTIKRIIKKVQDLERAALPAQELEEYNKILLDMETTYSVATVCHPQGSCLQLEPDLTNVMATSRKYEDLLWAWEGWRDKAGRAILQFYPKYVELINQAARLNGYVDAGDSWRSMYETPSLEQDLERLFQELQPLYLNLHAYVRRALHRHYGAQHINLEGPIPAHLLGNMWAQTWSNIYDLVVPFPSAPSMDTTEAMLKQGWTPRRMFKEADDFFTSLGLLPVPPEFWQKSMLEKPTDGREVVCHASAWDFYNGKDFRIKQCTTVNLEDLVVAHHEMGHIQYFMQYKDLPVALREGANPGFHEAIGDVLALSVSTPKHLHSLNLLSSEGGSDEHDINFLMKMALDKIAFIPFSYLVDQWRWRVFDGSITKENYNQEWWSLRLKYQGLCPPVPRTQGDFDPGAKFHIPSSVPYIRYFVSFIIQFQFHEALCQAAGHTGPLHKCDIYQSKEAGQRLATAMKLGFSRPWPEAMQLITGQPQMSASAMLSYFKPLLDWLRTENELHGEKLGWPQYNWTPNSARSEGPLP

This test has as its target T1, human somatic angiotensin I-converting enzyme, C-domain (cACE) (Homo sapiens, UniProt P12821, N1191Q/N695Q/N760Q/N942Q).
T1 construct: gene ACE
The test can be described thus: biochemical.

`O=C(O)c1cn(C2CC2)c2cc(N3CCNCC3)c(F)cc2c1=O` [Cip, Ciprofloxacin] displayed a Ki of 33.8 µM.

In general, Ki refers to the equilibrium dissociation constant of an inhibitor or competing ligand from its target. Read a low Ki as tighter binding.
